Assay results from patent US12391683B2, “Therapeutic compounds and methods” (Actio Biosciences, Inc., priority 2022, dated 2025).

Protein sequences, listed by entry. Tags and fused reporters are not part of them.
UniProt Q9HBA0, whole entry: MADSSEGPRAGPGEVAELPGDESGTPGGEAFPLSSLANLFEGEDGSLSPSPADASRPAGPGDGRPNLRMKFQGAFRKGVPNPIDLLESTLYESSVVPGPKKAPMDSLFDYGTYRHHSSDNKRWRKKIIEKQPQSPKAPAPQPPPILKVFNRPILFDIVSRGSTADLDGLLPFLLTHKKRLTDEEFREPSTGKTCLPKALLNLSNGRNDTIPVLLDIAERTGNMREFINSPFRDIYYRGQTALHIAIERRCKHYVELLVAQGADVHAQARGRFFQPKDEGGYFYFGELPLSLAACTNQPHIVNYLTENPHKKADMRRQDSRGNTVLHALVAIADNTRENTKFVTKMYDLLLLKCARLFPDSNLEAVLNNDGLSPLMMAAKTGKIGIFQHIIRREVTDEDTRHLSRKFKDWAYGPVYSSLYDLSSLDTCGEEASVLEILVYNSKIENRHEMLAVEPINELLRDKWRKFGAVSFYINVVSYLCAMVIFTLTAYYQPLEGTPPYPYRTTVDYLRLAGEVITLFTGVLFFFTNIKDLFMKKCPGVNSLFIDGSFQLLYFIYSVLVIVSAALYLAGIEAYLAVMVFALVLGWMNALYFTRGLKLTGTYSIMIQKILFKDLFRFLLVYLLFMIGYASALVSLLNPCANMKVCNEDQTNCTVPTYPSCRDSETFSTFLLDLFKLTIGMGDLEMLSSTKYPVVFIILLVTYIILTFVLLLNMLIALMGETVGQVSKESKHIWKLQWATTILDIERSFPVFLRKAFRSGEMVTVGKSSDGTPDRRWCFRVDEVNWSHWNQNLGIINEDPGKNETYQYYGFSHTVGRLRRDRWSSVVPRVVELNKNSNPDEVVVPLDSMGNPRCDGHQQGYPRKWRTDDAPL
UniProt P08684, whole entry: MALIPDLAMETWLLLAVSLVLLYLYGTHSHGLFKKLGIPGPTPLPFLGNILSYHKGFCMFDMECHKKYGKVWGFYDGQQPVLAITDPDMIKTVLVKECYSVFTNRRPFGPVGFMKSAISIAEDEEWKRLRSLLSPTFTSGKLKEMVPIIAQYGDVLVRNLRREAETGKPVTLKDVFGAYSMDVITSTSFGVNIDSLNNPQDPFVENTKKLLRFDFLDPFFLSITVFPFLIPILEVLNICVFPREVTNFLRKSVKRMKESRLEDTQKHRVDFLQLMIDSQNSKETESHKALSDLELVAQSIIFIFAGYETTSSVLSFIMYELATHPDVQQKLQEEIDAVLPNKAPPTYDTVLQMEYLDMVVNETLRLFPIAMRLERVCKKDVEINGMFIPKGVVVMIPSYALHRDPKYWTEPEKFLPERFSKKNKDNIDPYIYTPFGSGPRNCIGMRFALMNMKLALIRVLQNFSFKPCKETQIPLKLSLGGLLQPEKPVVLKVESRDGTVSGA

Experiments:
Human TRPV4 = Human TRPV4 (Homo sapiens, UniProt Q9HBA0); test: TRPV4 calcium flux assay (FLIPR, antagonist mode); settings: read-out: Human TRPV4 Ca2+ Assay IC50; HEK293T cells transfected with hTRPV4; antagonist mode vs EC80 of TRPV4 agonist; average of at least 3 separate experiments
Hepatocytes [1] = test: Hepatocytes predicted clearance, cyno; type: in vitro ADME
Hepatocytes [2] = test: Hepatocytes predicted clearance, dog; type: in vitro ADME
Hepatocytes [3] = test: Hepatocytes predicted clearance, rat; type: in vitro ADME
Hepatocytes [4] = test: Hepatocytes predicted clearance, human
Hepatocytes [5] = test: Hepatocytes predicted clearance, mouse; type: in vitro ADME
[6] = molecular target: recombinant human CYP3A4 enzyme (Homo sapiens, UniProt P08684); test: CYP3A4 incubation assay; type: in vitro ADME; settings: 100 pmol/mL recombinant human CYP3A4, 37° C., 0-25 min
Procedure: Example 24. CYP3A4 Incubation Assay
Compounds (final concentration […]) were incubated in 100 mM phosphate buffer containing 100 pmol/mL recombinant human CYP3A4 enzyme for 0, 5, 10, 15 and 25 minutes.
Testosterone was used as positive control. Reaction was initiated by the addition of NADPH (final concentration […]) and carried out at 37° C. The reaction was stopped by the addition of 4 volumes of cold acetonitrile (with 100 nM alprazolam, 200 nM labetalol, 200 nM imipramine and 2 μM ketoprofen as internal standards). Samples were centrifuged at 3,220 g for 40 minutes to precipitate protein. 70 μL supernatant was transferred to the analysis plate containing 110 μL of acetonitrile for LC-MS/MS analysis.
The following table indicates the percentage remaining for the indicated examples after incubation with recombinant Human CYP3A4 after 25 minutes under the same conditions as described for Example […].

Hepatocytes predicted clearance in cyno (Hepatocytes [1]) [mL/min/kg] | Hepatocytes predicted clearance in dog (Hepatocytes [2]) [mL/min/kg] | Hepatocytes predicted clearance in rat (Hepatocytes [3]) [mL/min/kg] | Hepatocytes predicted clearance in human (Hepatocytes [4]) [mL/min/kg] | Hepatocytes predicted clearance in mouse (Hepatocytes [5]) [mL/min/kg] | CYP3A4 Clint [6] | SMILES | IC50 (Human TRPV4) [µM]
 |  |  |  |  |  | CC(C)(C)c1cnc(N2C[C@@]3(CCC(F)(F)[C@H](Cn4cnc5ccc(C#N)cc54)C3)OC2=O)cn1 | 0.162
22.2 | 41 | 1.2 | 1.2 | 107 | 0.14, 0.14 μL/min/pmol CYP450 | CC1(Cn2cnc3ccc(C#N)cc32)CC2(CCC1=O)CN(c1cnc(C(C)(C)O)cn1)C(=O)O2 (single isomer, unassigned) | 6.4

Structures were worked out from names or drawings and are uncertain.
